Like-named read-outs stand apart in the source and are kept apart here. These are yes or no findings as the source states them, for the method shown. Binding seen in cells or lysates may run through a third protein. Here binding means that the protein was enriched with, or labelled near, the bait; the list need not be complete. For some assays here: A no says only that the protein was not detected with the bait. For some assays here: Tags and fused reporters may be left off the sequences shown.

Assay [1] concerns the target T1, BirA*-HA-Ccdc96 (Tetrahymena thermophila) (UniProt I7M6D6).
T1 sequence: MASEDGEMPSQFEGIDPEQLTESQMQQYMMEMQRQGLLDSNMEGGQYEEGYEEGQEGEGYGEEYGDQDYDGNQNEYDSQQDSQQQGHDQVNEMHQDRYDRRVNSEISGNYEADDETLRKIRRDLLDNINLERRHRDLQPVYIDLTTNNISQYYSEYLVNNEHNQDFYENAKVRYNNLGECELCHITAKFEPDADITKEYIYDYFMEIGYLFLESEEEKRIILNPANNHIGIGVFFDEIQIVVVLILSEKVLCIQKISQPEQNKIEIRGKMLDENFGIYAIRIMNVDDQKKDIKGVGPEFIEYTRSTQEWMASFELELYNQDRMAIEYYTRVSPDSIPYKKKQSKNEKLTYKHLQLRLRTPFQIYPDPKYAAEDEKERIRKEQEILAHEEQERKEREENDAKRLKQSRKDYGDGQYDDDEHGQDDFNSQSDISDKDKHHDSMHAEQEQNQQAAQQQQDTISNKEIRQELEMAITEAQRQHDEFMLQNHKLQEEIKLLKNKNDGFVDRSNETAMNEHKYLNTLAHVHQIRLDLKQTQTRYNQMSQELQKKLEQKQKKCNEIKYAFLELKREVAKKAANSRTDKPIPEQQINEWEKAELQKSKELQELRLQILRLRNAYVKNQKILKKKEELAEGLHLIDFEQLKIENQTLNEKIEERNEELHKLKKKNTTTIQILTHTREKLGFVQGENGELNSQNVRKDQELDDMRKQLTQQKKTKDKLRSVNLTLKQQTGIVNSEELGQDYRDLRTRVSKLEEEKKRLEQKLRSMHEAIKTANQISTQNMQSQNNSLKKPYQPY
In words: proximity labelling; BioID: cells expressing the BirA*-tagged bait starved overnight in 10 mM Tris-HCl pH 7.5, then 50 uM biotin for 4 h at 30 C; axonemes lysed in 0.4% SDS, 500 mM NaCl; biotinylated proteins bound to streptavidin Dynabeads and identified by mass spectrometry; wild-type cells as control.

Assay [2] concerns the target T2, Ccdc113-3HA (Tetrahymena thermophila) (UniProt Q22KK0).
T2 sequence: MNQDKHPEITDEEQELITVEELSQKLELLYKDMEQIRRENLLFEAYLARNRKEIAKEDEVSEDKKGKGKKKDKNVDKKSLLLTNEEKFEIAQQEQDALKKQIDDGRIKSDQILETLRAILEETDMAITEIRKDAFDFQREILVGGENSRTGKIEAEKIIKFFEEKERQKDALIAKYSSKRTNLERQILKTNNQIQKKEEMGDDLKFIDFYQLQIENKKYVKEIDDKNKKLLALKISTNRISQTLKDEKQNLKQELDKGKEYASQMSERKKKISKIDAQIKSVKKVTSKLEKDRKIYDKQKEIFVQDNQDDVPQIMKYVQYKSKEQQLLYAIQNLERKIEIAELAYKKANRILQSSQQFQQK
Description: affinity purification with mass spectrometry; 0.5 M KI extract of axonemes from cells with Ccdc113-3HA at the native level, diluted and concentrated, anti-HA agarose overnight at 4 C, washed with 10 mM Tris-HCl pH 7.4, 150 mM NaCl, 0.5 mM EDTA; wild-type cilia as control.

For assay [3], the target named is T3, Ccdc96-HA-BirA* (Tetrahymena thermophila) (UniProt I7M6D6).
T3 sequence: T1 sequence
In words: proximity labelling; BioID: cells expressing the BirA*-tagged bait starved overnight in 10 mM Tris-HCl pH 7.5, then 50 uM biotin for 4 h at 30 C; axonemes lysed in 0.4% SDS, 500 mM NaCl; biotinylated proteins bound to streptavidin Dynabeads and identified by mass spectrometry; wild-type cells as control.

Assay [4] deals with T4, Ccdc113-HA-BirA* (Tetrahymena thermophila) (UniProt Q22KK0).
T4 sequence: T2 sequence
The description is as above.

Assay [5] deals with T2, Ccdc113-3HA (Tetrahymena thermophila). Description: affinity purification with mass spectrometry; 0.5 M KI extract of axonemes from cells with Ccdc113-3HA at the native level, diluted and concentrated, anti-HA agarose overnight at 4 C, washed with 10 mM Tris-HCl pH 7.4, 150 mM NaCl, 0.5 mM EDTA; wild-type cilia as control. This is another data set of the same source.

In the case of Act1 (actin) (Tetrahymena thermophila), the binding result in assay [1] is “no binding”; in assay [2] it was “binds”.
Cfap299 (Tetrahymena thermophila): the binding result in assay [3] and in assay [4] was “no binding” in each case.
For Drc1 (Tetrahymena thermophila), the binding result in assay [1] is listed as “no binding”.
Still for that read-out and setting: the same measure for Drc2 (Tetrahymena thermophila): “no binding”; for Drc3 (Tetrahymena thermophila): “no binding”.
Drc4a (Tetrahymena thermophila): the binding entry in assay [1] was “no binding”.
On to Drc4b (Tetrahymena thermophila), for which, in assay [1], the binding entry is “no binding”.
For the molecule Fap57B (Tetrahymena thermophila), the binding entry in assay [1] is recorded as “no binding”.
The same measure, in the same setting: then Fap57C (Tetrahymena thermophila), with “no binding”.

B1: Fap251 (protein, UniProt Q24DE2 1-996)
chain: MYQQEEYEVNNEGQEDVSKINALNLKWTLGFNFQLTDGVHNLTNEKRKEIFYPVAHTGVIYDYENNTQRLLQGHCNRITATAYCKFSDIIVTADCGPDSMLVVWDASTGIPKKTIFEPHPNGCQALDISQDGQFIVTLSKEANTDTDVQSLSLWEWNKDDEPCLITNEFDRRIKDYQYFVRFNSDDNTEFATTGKTRIVFWRREGEQKGFNYYSPGNIPSLKVLTQTVFIPDNTQVVTGTTDGHIIVWDISLIIEKVDTPKERRAIKLVDLMNKSKKPDGKKGSNSINILKIQDNYLVIGSSNGSIRFYDFQYRIIAWFEDAIIGSISNISFANTPMIEDNEDEDGFDDERKDKGENEPKFICPDFIVVDLDATITMLNYKLFEELDDEKKKGTTLMKSIVSPIIAMSCRPNSNVIGICCENGYLYEWNFQEKSSVLSILRVFDTDKENIPNCIDYSPDGNWLSVATKSGKIHIFDCKEKQWQNSVLEVSENEQGKPKVNMQVFSSDSKNLATMDADYAVSLFTIDHRQFDVNIPEKEWQFVGKHRIHHSEIKSIAFGESKNENDKKYYRLFSIGADMKMVEYEVLEIDYSKQKEKGQQINYIDRLKLKSIYPIEQETIPTACIWYPINMYKEDVLLTVNEEFKIKLWQFMKDNFKFCKKTCLGPIYGGAINKLLILNQNDAQNDYQDKYLAYSTKEKVVGIIKLPLEGNPNQTMGLIAHPDKITSISCSNDGKHFFSSGSDDYCVNVWSVNVQALEQIFATNPNEDPYPKLLEGGEDGQTHQDLKNFFYYSQIRSKDEHTTKARKLDGKVPLIAIPDMMRSMGYYPTNKEIENMQNEIRFSKYLDPGEQVEELDLNMFLKLFVNHRPVQGIGKSKIAESLNTLTKSLSDSAKEIAEQAKGQSVQPKTYNIDGIGEISLQDLKKILTTEGERMTNEEFDECLKILCGENEDQIPQQINVNNLCEDILGFEDLEGEERDDNIEDQYEDEENEEYDQD
Regarding B1, the binding result in assay [1] and in assay [5] was “no binding” throughout.

B2: Fap57A (protein, UniProt Q234G8 1-1293)
chain: MAQQIVQSLQDEGTQSLKLDFSMKYVLGYRSDFKNNIFQYTMNDQNRIIYPAGNTIVISNNENKQQFINCIPGTKGITCMTLSPSKRLLAWSEDCDSGIIVVFDLIKLDKLEKAKNQNYQEPSDKDKLDKQAEKDRRDRFEKEKREKIDKLQKEVKRIITTLDCKSRHYVALDFNKINEKRIVALSCAPDWQLIYFQLDKQKTVIINQVPLKVGDNMRYTHCFFHPKEEDFIVAIGTGAIKPYKLGADGQFKQKDPPFVKKESKDQAHSPNYLSYCILQDGYMVIGTDMGEILLFQPSCEFKTILASSPKNEQFAIQCIQPYSKGFLVGGKECTILFYEKDVDLKNPYKLCSKKIQFRDMKAMITSLLLTPNEEKLIVGVDSGQLLQVPFTSDSMQLNEENSKCEPLFMPFHSDKITGLDVCIRKSLVATCSVDKTVRIWNYSDNQLENSKEFEEEAYAVAFHPSGFHIIVAFTEKIRLMNIFENDLISFKELSVKNCREIQFSNGGHFFAITNVSMVQVFQFYTGENPSNLVFRGSGKVRTIFWEEDDQGFYTGSTDGLVIYWRVDDNGPQKTQIAQFNNLIITSITGLYNPDTTTQGLERILFVSGVSSSQENEGEKCVYKLVISCRQDKEGREITDNTLKKIYYVSQPEQKIFTGTNVSQIAISHSKKLFFFATEDRPGAIRITKYPFTNEIMEIQSHFGPITRMRISFKDNYIFTAGEDGALIIYENKEKEYQVKIENESVEAAAEEFLIPRDQYNDQKREIEKLKRQLNEERMKQEQQIKEKMKDRDDKINQLENQQKDSDNRDLNKYQLLEREKNEMIESYEEKKRMMKLQHENNKRTIENEYKKKIALEMSRNEELAREKEKEEKRFQSEIQQYQEEHLRQMEEKRRHYEEQLAIEKQLYNDLHLKREELAYKFDQKRNKLEMEAEELIDQLKEENESKMQVLFKNLEKAEIKKMDRRNDYDTEAQKLEEQKSKLKGTMEDITSIQETNKMLQKEKESHAKEIDEREKTIRDKGRRIYELKKKTQELEKFKFVLDYKIKELKRDIGPKEEEIAKMKEQIANMNSEILHFKRTNANLKLIVTDLRLRQEGMKKEIEDQSKVIQQNNQYIKAFEQDMSDCHQHIADYKKLKQKVLNLYNQYVQGDDSKKKRLENNDQQKEIMKERAHLETSVNNLKIKHDKNQSVHKSDTTIIMKHNTFLIFEINHLKREKKKILEDKAKMLMQATQKKKQDGTSRVDIDSLEKEIQKNEDEKRKLKEDIEKLRQYNDQIKNQLRQQIQNQQDDDEDN
In the case of B2, the binding result in assay [1] is reported as “no binding”.

These data come from PMC7987202.
